Reference: patent US7674604
Results are given in words; binding and its absence hold for the method and conditions named. Some results given as binding are weak or reduced against the parent protein; the word gives no strength.

Amino acid sequences for entries named in this document (tags omitted). Residues count along the entry.
UniProt P13597, residues 28-485: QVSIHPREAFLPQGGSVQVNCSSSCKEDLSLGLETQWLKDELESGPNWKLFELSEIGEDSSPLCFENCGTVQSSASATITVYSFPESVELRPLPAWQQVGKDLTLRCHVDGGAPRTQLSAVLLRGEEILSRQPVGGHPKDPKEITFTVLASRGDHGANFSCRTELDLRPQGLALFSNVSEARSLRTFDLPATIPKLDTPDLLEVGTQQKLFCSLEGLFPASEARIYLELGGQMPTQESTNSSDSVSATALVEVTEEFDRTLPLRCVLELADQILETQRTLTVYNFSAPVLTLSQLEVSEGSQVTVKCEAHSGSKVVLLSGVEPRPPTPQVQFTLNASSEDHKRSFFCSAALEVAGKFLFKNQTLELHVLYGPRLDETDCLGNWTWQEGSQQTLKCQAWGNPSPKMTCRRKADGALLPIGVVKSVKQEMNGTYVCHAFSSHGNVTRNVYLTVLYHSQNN

Molecular target: murine ICAM-1 (murine) (UniProt P13597)
Test: BIAcore

B1: recombinant soluble αL I-domain K287C/K294C (G128 to Y307) stabilized in the open conformation, made in E. coli (receptor)
chain: GNVDLVFLFDGSMSLQPDEFQKILDFMKDVMKKLSNTSYQFAAVQFSTSYKTEFDFSDYVKRKDPDALLKHVKHMLLLTNTFGAINYVATEVFREELGARPDATKVLIIITDGEATDSGNIDAAKDIIRYIIGIGKHFQTKESQETLHKFASKPASEFVCILDTFECLKDLFTELQKKIY
modifications: chain 1: disulfide between C160 and C167 (mature C287, C294)
In the case of B1, the binding is reported as “binds”.
